We go through four molecules from PMC11236974.

These are yes or no findings as the source states them, for the method shown. For some of these results: In cells and extracts the contact can be indirect. For some of these results: A result given as binding can be weak or reduced; the word gives no strength. Sequences can lack the tags named with a protein.

The target of assay [1] is T1, FliG of the polar flagellar system, full length (pulldown prey) (S. putrefaciens).
T1 sequence: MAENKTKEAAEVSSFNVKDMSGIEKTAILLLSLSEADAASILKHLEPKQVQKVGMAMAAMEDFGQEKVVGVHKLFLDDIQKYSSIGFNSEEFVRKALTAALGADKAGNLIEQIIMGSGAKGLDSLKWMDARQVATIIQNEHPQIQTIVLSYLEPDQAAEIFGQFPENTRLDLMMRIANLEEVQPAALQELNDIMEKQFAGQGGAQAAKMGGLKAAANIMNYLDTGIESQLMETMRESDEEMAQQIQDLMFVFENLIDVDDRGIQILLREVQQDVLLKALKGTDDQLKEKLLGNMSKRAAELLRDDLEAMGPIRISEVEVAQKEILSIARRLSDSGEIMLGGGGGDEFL
The assay is described as follows: pull-down; cultures of StrepII-tagged bait and His-tagged tested proteins combined and lysed; lysate on MagStrep Strep-Tactin XT beads, 30 min, 4 °C; three washes with SEC buffer; eluted with D-biotin; Coomassie-stained SDS-PAGE.

For assay [2], the target named is StrepII-tagged B-domain truncation with the first 60 amino acids of FlhF (S. putrefaciens) (UniProt A4Y8J9). Described as above.
The target in assay [3] is FlhF (yeast two-hybrid bait) (S. putrefaciens) (UniProt A4Y8J9). Nature of the assay: two-hybrid; yeast two-hybrid; bait fused to the Gal4 DNA-binding domain, preys to the Gal4 activation domain; strain PJ69-4A; growth on -HLT (HIS3) and -ALT (ADE2) plates, 3 days at 30 °C.

Regarding “cytoplasmic domain of FliF (pulldown prey) (S. putrefaciens) (domain or fragment)”, in assay [1], the binding entry is reported as “binds”.

B1: FliG of the polar flagellar system, full length (pulldown prey) (protein, UniProt A0ABX8X876 1-348)
chain: T1 sequence
On to B1, for which, in assay [2], the binding result was “binds”.

B2: FliN of the polar flagellar system (yeast two-hybrid prey) (protein, UniProt A0ABX8X9E3 1-127)
chain: MSTEDTGDDWAAAMAEQALEEANAVALDELVDDSQPISKADAAKLDTILDIPVTISMEVGRSFISIRNLLQLNQGSVVELDRVAGEPLDVMVNGTLIAHGEVVVVNDKFGIRLTDVISQTERIKKLK
For B2, the binding result in assay [3] was “no binding”.

B3: FliM of the polar flagellar system (yeast two-hybrid prey) (protein, UniProt A0ABX8X8Z6 1-343)
chain: MSDLLSQDEIDALLHGVDDVDDDDDLDAASQDARSYDFSSQDRIVRGRMPTLEIVNERFARHLRISMFNMMRRAAEVSINGVQMLKFGEYVHTLFVPTSLNMVRFSPLKGTALITMEARLVFILVDNFFGGDGRFHAKIEGREFTPTERRIVQLLLKIIFEDYKDAWAPVMDVEFDYLDSEVNPAMANIVSPTEVVVINSFHIEVDGGGGDFHITMPYSMIEPIRELLDAGVQSDKQDTDMRWSQALHDEIMDVKVGFDACVVEHELTLKDVMNFKAGDIIPVELPEYIMMKIEDLPTYRCKMGRSRDNLALKIYEKIPRPETVKTELQLVTRKGKARDISEL
Consider B3, for which the binding entry in assay [3] is listed as “no binding”.
